Publication PMC4644993, “The second virial coefficient as a predictor of protein aggregation propensity: A self-interaction chromatography study” (European Journal of Pharmaceutics and Biopharmaceutics, 2015)
Results are given in words; binding and its absence hold for the method and conditions named.

Target: catalase from bovine liver (bovine) (UniProt P00432)
Test: self-interaction chromatography; the same protein immobilised and injected; pH 4.0 (and pH 5.0 for con A), NaCl below 0.30 M, 20 mM sodium acetate buffer, 0.5 mL/min, 10 uL injections; both purified

B1: catalase from bovine liver (enzyme, UniProt P00432 1-527, looked up)
chain: MADNRDPASDQMKHWKEQRAAQKPDVLTTGGGNPVGDKLNSLTVGPRGPLLVQDVVFTDEMAHFDRERIPERVVHAKGAGAFGYFEVTHDITRYSKAKVFEHIGKRTPIAVRFSTVAGESGSADTVRDPRGFAVKFYTEDGNWDLVGNNTPIFFIRDALLFPSFIHSQKRNPQTHLKDPDMVWDFWSLRPESLHQVSFLFSDRGIPDGHRHMNGYGSHTFKLVNANGEAVYCKFHYKTDQGIKNLSVEDAARLAHEDPDYGLRDLFNAIATGNYPSWTLYIQVMTFSEAEIFPFNPFDLTKVWPHGDYPLIPVGKLVLNRNPVNYFAEVEQLAFDPSNMPPGIEPSPDKMLQGRLFAYPDTHRHRLGPNYLQIPVNCPYRARVANYQRDGPMCMMDNQGGAPNYYPNSFSAPEHQPSALEHRTHFSGDVQRFNSANDDNVTQVRTFYLKVLNEEQRKRLCENIAGHLKDAQLFIQKKAVKNFSDVHPEYGSRIQALLDKYNEEKPKNAVHTYVQHGSHLSAREKANL
notes: catalase from bovine liver, MW 250 kD, pI 5.4; Immobilised copy is coupled to Toyopearl AF-Amino-650M particles with EDC and NHS; source: bought: Sigma Aldrich (C9322)
  binding: no binding (condition: pH 4.0, NaCl below 0.30 M)
